PubChem BioAssay AID1259308, NCATS | 2017
The whole screen tested about 59,000 reagents; shown is an unselected part. About 1,510 of them (2.6%) were called active. 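Calls use total luciferase alone and ignore viability, so some active siRNAs may act by altering cell number.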 The numbers tell different reagents against one gene apart.

Screen: 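Candidate targets for better recombinant protein yield in mammalian cells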 (primary screen)
Cell system: human HEK293 embryonic kidney cells stably expressing firefly luciferase (HEK-CMV-Luc2-Hygro)
Knock-down reagent: single siRNA against human genes, 0.8 pmol siRNA per well
Duration: 72 h
Detection: 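Reporter luminescence and viable-cell signal on separate replicate plates, given as percent of non-targeting control and median/MAD z-scores, plus per-cell luciferase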
Scale: total luciferase, z-score and total luciferase, % of control: higher = more reporter protein produced; luciferase per cell, z-score: higher = more reporter output per viable cell; viable cells, % of control: higher = more viable cells
Call rule: 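An siRNA counts as active if its total luciferase robust z-score exceeds 3; genes with two or more such siRNAs out of three were retested with fresh siRNAs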
Meaning of the calls: active = raised luciferase; inactive = no rise

no.	gene	reagent no.	total luciferase, z-score	total luciferase, % of control	luciferase per cell, z-score	viable cells, % of control	call
1	MLXIPL	1	-1.34	55.2	-1.29	86.6	inactive
2	MLXIPL	2	-2.71	28	-2.17	55.4	inactive
3	MLXIPL	3	-1.22	57.6	-1.59	97.7	inactive
4	HAS3	1	0.345	88.7	0.406	89.1	inactive
5	HAS3	2	-0.335	75.2	-0.3	91	inactive
6	HAS3	3	-0.701	68	-0.648	90.1	inactive
7	DLGAP1	1	-0.294	76	-0.261	91	inactive
8	DLGAP1	2	-0.733	67.3	-0.946	96.5	inactive
9	DLGAP1	3	-0.117	79.6	-0.517	102	inactive
10	DLGAP1	4	-0.0475	80.9	0.158	86.8	inactive
11	DLGAP1	5	-0.634	69.3	-0.00946	77.6	inactive
12	DLGAP1	6	1.06	103	0.587	98.7	inactive
13	ACTR8	1	-0.162	78.7	-0.382	97.2	inactive
14	ACTR8	2	0.102	83.9	-0.124	96.9	inactive
15	ACTR8	3	-1.23	57.4	-2.07	111	inactive
16	JAGN1	1	3.8	158	3.89	63.2	active
17	JAGN1	2	0.758	97	1.55	72.1	inactive
18	JAGN1	3	0.833	98.4	-0.104	113	inactive
19	PLEKHG4	1	0.714	96.1	0.102	105	inactive
20	PLEKHG4	2	-1.89	44.2	-2.47	94.6	inactive
21	PLEKHG4	3	-1.13	59.3	-0.795	81.7	inactive
22	ZPBP2	1	-1.69	48.3	-1.53	80.7	inactive
23	ZPBP2	2	0.634	94.5	0.376	95.6	inactive
24	ZPBP2	3	-0.315	75.6	-0.687	101	inactive
25	ZNF599	1	0.495	91.7	0.34	93.7	inactive
26	ZNF599	2	0.65	94.8	0.305	97.8	inactive
27	ZNF599	3	-0.96	62.8	-1.14	94.7	inactive
28	CLPTM1L	1	-0.675	68.5	-0.489	87	inactive
29	CLPTM1L	2	0.402	89.9	0.375	91	inactive
30	CLPTM1L	3	-1.03	61.4	-0.824	85.2	inactive
31	LRPAP1	1	-0.539	71.2	-0.332	86.8	inactive
32	LRPAP1	2	2.35	129	3.32	60	inactive
33	LRPAP1	3	1.97	121	1.36	94.4	inactive
34	ZNRD2	1	-2.21	37.8	-2.26	76.6	inactive
35	ZNRD2	2	0.918	100	0.963	86.8	inactive
36	ZNRD2	3	-0.198	78	0.0177	86.7	inactive
37	MGARP	1	-0.143	79.1	-0.0615	89.8	inactive
38	MGARP	2	0.412	90.1	-0.246	107	inactive
39	MGARP	3	-0.533	71.3	-0.508	91.1	inactive
